# Entries after “also recorded” stand apart in the source; their conditions may differ. At least one compound was matched to its structure with a doubt left.
# Legend:
# TPH1 mRNA = TPH1 mRNA levels in murine raphe slice preparation by real-time RT-PCR; assay type: in vivo, mouse
# Source text: (§1) Female mice (13 to 16 wks of age) were ovariectomized (C57BL/6s from Charles River; ER Knockout animals from Taconic). Animals were fed a soy-free rodent chow and allowed a minimum of one week to recuperate from surgery and shipping. […] Approximately six hours following the fourth dose, mice were deeply anesthetized with ketamine/xylazine and brains were removed from the skull, placed ventral side up in a mouse brain block on ice, and ice-cold razor blades were inserted into the block at 1 mm intervals. The caudal extent of the hypothalamus was used as an anatomical marker for the placement of the first razor blade, and 4 blades were placed in sequential slots, caudally. The four sections were examined and the two that encompassed the greatest extent of the dorsal raphe were placed in a tube containing RNALATER (Ambion, Austin, Tex.) and placed at 4° C. overnight. Brain slices were removed from RNALATER after 24 hours and stored at −80° C. in fresh tubes.
# Isolation of total RNA from mouse raphe slices for real-time PCR analysis using the TAQMAN ABI PRISMS 7700 Detection System, Applied Biosystems, Foster City, Calif. was as follows. Samples were stored in RNALATER at 4° C. overnight followed by removal of RNALATER and storage at −80° C. until isolation of the total RNA (2 slices weigh 25 to 50 mg). Slices were removed from −80° C. and placed in 1.0 mL TRIZOL Reagent in FASTPREP processing tubes. Slices were homogenized with one pass at setting 6 for 30 seconds in FASTPREP 120 homogenizer using LYSING MATRIX D tubes with bead matrix followed by 20 seconds at setting 6 after all samples had been processed. Samples were set at room temperature for 5 minutes to allow for complete dissociation of nucleoprotein complexes followed by centrifugation of the samples at 12,000×g for 5 minutes at 4° C. Homogenates were transferred to 1.5 mL; microcentrifuge tubes and 100 μL BCP (Bromo-3-chloropropane) was added. Samples were vortexed for 15 seconds and set at room temperature for 2 to 3 minutes. Samples were centrifuged at 12,000×g for 15 minutes at 4° C. […]
# TPH2 mRNA = TPH2 mRNA levels in murine raphe slice preparation of ovariectomized female mice by real-time RT-PCR; assay type: in vivo, mouse
# Source text: as §1, with “RNALATER” left out
# Two TPH2 primer and probe sets were generated for use in detecting TPH2 by real-time RT-PCR. Murine TPH2 forward primers were mTPH2-514F and mTPH2-1270F, their corresponding sequences are 5′-[…]-3′ (SEQ ID NO:7; corresponding to nucleotides 514 to 535 of the nucleotide sequence encoding TPH2) and 5′-[…]-3′ (SEQ ID NO:8; corresponding to nucleotides 1270 to 1290 of the nucleotide sequence encoding TPH2), respectively. […]
smiles,measurement,setting,value
C[C@@H]1C[C@H]2[C@@H]3CCC4=CC(=O)C=C[C@]4(C)[C@@]3(F)[C@@H](O)C[C@]2(C)[C@@]1(O)C(=O)CO [dexamethasone],effect on TPH1 mRNA levels,"TPH1 mRNA; 3 mpk s.c., ovariectomized mice, FIG. 6",neither 3 mpk of dexamethasone nor 10 mpk prednisolone had any effect
same,effect on TPH1 mRNA in the DRN,"TPH1 mRNA; male and female mice, data not shown",no detectable effect
same,change of TPH1 mRNA levels in response to treatment,"TPH1 mRNA; murine raphe slice preparations, dose not stated, FIG. 6",no detectable change
same,effect on TPH2 mRNA expression compared to vehicle,"TPH2 mRNA; dexamethasone 3 mpk once daily, FIGS. 7 and 8",decrease; also recorded: significant reduction
same,effect on TPH2 mRNA levels on raising the dose,TPH2 mRNA; dexamethasone increased from 3 mpk to 10 mpk,further reduction
